Reference: US10899631B2, “Ferrous modified selenium sol for inhibiting accumulation of cadmium and arsenic in rice and preparation method and application thereof” (priority 2018, dated 2021)
At least one compound was matched to its structure with a doubt left.

Tested on: rice
Experiment: Field test of foliar barriers: content of cadmium in rice
Type: in vivo, rice variety Huang-Li-Zhan
Conditions: sol in regimens T1, T2 and T3, ferrous sulfate T4, sodium selenite T5
Excerpt: The surface soil (0-30 cm) of a rice field polluted by heavy metals located in Boluo Town, Huizhou City, Guangdong Province was collected and analyzed from April to July of 2016. […] The tested rice variety was Huang-Li-Zhan.
There were the following six treatments in the experiment: (1) Blank control (CK): An equal amount of clear water was sprayed. (2) Treatment 1 (T1): The silica sol foliar barrier (prepared in Example 3) was sprayed once on the leaves at the tillering stage of rice when the foliar barrier was diluted 50 times and sprayed at 100 L/mu. (3) Treatment 2 (T2): The selenium sol foliar barrier (prepared in Example 3) was sprayed twice on the leaves, the first at the tillering stage of rice when the foliar barrier was diluted 100 times and sprayed at 50 L/mu, the second at the heading stage of rice when the foliar barrier was diluted 100 times and sprayed at 150 L/mu. (4) Treatment 3 (T3): The selenium sol foliar barrier (prepared in Example 3) was sprayed three times on the leaves, the first at the tillering stage of rice when the foliar barrier was diluted 100 times and sprayed at 80 L/mu, the second at the heading stage of rice when the foliar barrier was diluted 100 times and sprayed at 120 L/mu, the third at the filling stage of rice when the foliar barrier was diluted 250 times and sprayed at 150 L/mu. […]

O=[Se](O)O [sodium selenite]
cadmium and inorganic arsenic content of the treated rice against the food hygiene standard: still exceeded the food hygiene standard
